Test results published in the supplement of paper PMC12889115.
Some of the results follow. These are raw signals, not scaled to a control.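 Primary screen: polymyxin B was added at a level permeabilizing Salmonella outer membranes while sparing inner membranes. DMSO wells, both with and without polymyxin B, established maximum growth. Plate-to-plate variation meant each plate was ranked on its own, and the lowest-OD600 compounds were selected as hits.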

Test system: Salmonella enterica serovar Typhimurium SL1344
Assay: bacterial growth OD600 after 18 h with compound and polymyxin B; higher = more bacterial growth (less inhibition)
Conditions: 50 µM, Mueller-Hinton broth

SMILES | bacterial growth OD600 (polymyxin B 1 µg/mL) | bacterial growth OD600 (polymyxin B 0.75 µg/mL)
CCOC(=O)C1(CCc2ccccc2)CCCN(C(=O)CCC2=NNC(=O)CC2)C1 (configuration not stated) | 1.01 | –
COc1ccccc1OCc1cc(C(=O)NCc2ccc(C)s2)n[nH]1 | 0.867 | –
Cc1ccc(OCc2cc(C(=O)N(C)CCC(C)C)no2)cc1C | – | 0.001
CCc1[nH]c2c(CNC(C)C(C)(C)O)cc(F)cc2c1C (configuration not stated) | 0.734 | –
COC(=O)CCCNC(=O)c1cc(Cn2c(C)nc3ccccc32)[nH]n1 | 0.909 | –
COc1cccc([C@@H](C)NC(=O)c2cn(CC(C)C)cc(C(=O)N3CCCCCC3)c2=O)c1 | – | 0.831
O=C(NCCc1cnccn1)C1CCC(=O)N(CCc2ccccc2)C1 (configuration not stated) | 0.896 | –
CS(=O)(=O)N1CCC(C2CCN(Cc3cccnc3)CC2)C1 (configuration not stated) | – | 0.872
CC(=O)N1CCC[C@H]1C(=O)N1CCC(CCC(=O)N(C)Cc2ccccc2)CC1 | 0.887 | –
COc1ccc(-n2ncc(C(C)NCc3cc4c(cc3Cl)OCO4)c2C)cc1 (configuration not stated) | 1.06 | –
O=C(CC(F)(F)F)N1CCc2[nH]nc(-c3ccc4c(c3)OCO4)c2C1 | – | 0.815
COc1cccc(CN2CCNC(=O)C2CC(=O)NCC2CCN(C(C)C)CC2)c1OC (configuration not stated) | 0.721 | –
CN(CCC(=O)NCC1Cc2cc(-c3cnc4ccccc4c3)cc(F)c2O1)C1CCS(=O)(=O)C1 (configuration not stated) | – | 0.786
C=C(C)CN(C)C(=O)c1coc(COc2ccc3c(c2)OCO3)n1 | 0.904 | –
COC(=O)c1cc(CNC(=O)CC2NC(=O)c3ccccc32)cc(NC(=O)c2cc(C)nn2C)c1 (configuration not stated) | – | 0.881
COC(=O)CNC(=O)c1ccc(OC2CCN(C3CCCC3)CC2)c(OC)c1 | – | 0.843

SMILES | bacterial growth OD600 (polymyxin B 1 µg/mL) | bacterial growth OD600 (polymyxin B 0.75 µg/mL)
COc1ccc2cc(C(=O)C3CCCN(S(=O)(=O)c4c(C)noc4C)C3)ccc2c1 (configuration not stated) | 0.826 | –
CC(=O)c1cccc(OCc2cc(C(=O)N(C)Cc3sccc3C)n[nH]2)c1 | 1.03 | –
O=C(Nc1cccc(-c2cccc(Cl)c2)c1)C1CCN(C(=O)C2CCCO2)CC1 (configuration not stated) | 0.08 | –
COCC(=O)Nc1cc(C(=O)N(C)Cc2ccc3nsnc3c2)c2c(c1)nc(C1CCC1)n2C | – | 0.902
CC1CCN(Cc2nnnn2CCCC(=O)N2CCC(c3ccncc3)CC2)CC1 | 1.03 | –
O=C(Cc1cccc(F)c1)NC1CC(=O)N(C2CCCCCC2)C1 (configuration not stated) | 0.921 | –
CN(CCC1CCCCO1)C(=O)c1csc2nc(-c3ccccc3)cn12 (configuration not stated) | 0.989 | –
COc1ccccc1CN1CCN(C(=O)Cn2nnnc2CN2CCCC2)CC1 | 1.05 | –
O=C(NCC1CCCN(C(=O)CCN2CCCO2)C1)c1ccc(-c2ccccc2)cc1 (configuration not stated) | 0.933 | –
COc1ccc(-c2noc(CN3CCC(OCc4ccccc4)CC3)n2)c(OC)c1OC | 0.945 | –
O=C(CCC1CCN(C(=O)c2cccc3c2C(=O)c2cc(Cl)ccc2-3)CC1)NC1CC1 | 0.854 | –
Cc1c(CCNC(=O)CSc2ccc3nnc(C)n3n2)c2ccccc2n1-c1ccccc1 | – | 0.814
CCCCN(Cc1ccccc1)Cc1nc(Cc2ccccc2F)no1 | 0.842 | –
CC1CCN(Cc2nnnn2CC(=O)NCCc2cccc(C(F)(F)F)c2)CC1 | 1.16 | –
COC(C(=O)Nc1ccnn1C1CCN(C(=O)C(=O)CC(C)C)CC1)c1ccccc1 (configuration not stated) | – | 0.798
O=C(NCc1cccnc1)c1ccc(N2CCC(NCc3cnn(-c4ccccc4)n3)CC2)cc1 | – | 0.719

2 records picked at random from the list so far:
SMILES | bacterial growth OD600 (polymyxin B 1 µg/mL) | bacterial growth OD600 (polymyxin B 0.75 µg/mL)
O=C(NCc1cccnc1)c1ccc(N2CCC(NCc3cnn(-c4ccccc4)n3)CC2)cc1 | – | 0.719
CN(CCC1CCCCO1)C(=O)c1csc2nc(-c3ccccc3)cn12 (configuration not stated) | 0.989 | –
